In PMC7862700:
This is a selection; strong and weak results do not stand in their true shares. At the low end of the ranking the order means little.

By UniProt entry, the sequences of proteins in these tests, tags left out. Where a name states a change or a piece, a line headed by the entry shows the natural chain unless it says otherwise.
UniProt Q9Y603: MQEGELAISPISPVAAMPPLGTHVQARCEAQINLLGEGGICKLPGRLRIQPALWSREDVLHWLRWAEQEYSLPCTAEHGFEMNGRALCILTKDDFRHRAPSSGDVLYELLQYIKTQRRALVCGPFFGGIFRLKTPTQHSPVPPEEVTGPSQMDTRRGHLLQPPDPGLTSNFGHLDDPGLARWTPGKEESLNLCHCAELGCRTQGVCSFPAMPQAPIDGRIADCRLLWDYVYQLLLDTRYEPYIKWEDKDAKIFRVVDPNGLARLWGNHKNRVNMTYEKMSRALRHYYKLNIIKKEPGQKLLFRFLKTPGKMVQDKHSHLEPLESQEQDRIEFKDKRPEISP
UniProt P41212: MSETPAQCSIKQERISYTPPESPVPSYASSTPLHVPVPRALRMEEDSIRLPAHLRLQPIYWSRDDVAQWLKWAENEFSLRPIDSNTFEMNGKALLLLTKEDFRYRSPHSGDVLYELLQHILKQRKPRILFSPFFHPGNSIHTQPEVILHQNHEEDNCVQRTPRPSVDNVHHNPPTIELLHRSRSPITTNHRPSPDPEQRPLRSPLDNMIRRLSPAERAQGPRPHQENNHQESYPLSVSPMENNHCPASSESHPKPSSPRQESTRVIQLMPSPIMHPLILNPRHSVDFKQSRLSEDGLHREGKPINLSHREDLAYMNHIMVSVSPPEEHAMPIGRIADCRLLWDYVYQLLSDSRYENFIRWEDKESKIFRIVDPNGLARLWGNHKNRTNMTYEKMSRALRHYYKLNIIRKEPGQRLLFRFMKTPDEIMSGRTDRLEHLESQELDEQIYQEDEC

Columns and labels:
Test in all cases: DAPPL (digital affinity profiling via proximity ligation, sequencing)
Conditions in all cases: 10 mM Tris-HCl pH 7.5, 50 mM NaCl, 1 mM DTT, 4% glycerol, room temperature, 30 min; GST-TFs on glutathione beads, 16-mer random dsDNA library, 0.1% …; high values mean tight binding; double strand, one strand shown; scale: fold enrichment (6-mer frequency, TF over GST control)
ELF3 = molecular target: T1, ELF3 (UniProt P78545)
T1 sequence: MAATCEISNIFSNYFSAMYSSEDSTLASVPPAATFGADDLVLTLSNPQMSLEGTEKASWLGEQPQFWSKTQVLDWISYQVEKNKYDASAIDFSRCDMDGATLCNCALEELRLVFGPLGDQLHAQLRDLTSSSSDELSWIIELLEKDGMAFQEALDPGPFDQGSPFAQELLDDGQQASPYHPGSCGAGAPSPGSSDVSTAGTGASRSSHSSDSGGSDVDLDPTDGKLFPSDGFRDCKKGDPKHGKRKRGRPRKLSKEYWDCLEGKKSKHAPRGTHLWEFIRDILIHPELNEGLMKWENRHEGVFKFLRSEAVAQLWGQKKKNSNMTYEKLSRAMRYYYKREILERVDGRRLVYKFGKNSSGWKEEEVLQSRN

ETV7 = ETV7 (UniProt Q9Y603)
ETV6 = ETV6 (UniProt P41212)

Sequence | binding signal (ELF3) | binding signal (ETV7) | binding signal (ETV6)
CCGAGG | 0.803 | 0.788 | 0.745
ACGGGG | 0.587 | 0.708 | 0.659
AGGTCG | 0.478 | 0.562 | 0.532
GAGAGC | 0.397 | 0.428 | 0.395
AGCCGA | 0.833 | 0.909 | 0.774
CGGCAG | 0.868 | 0.743 | 0.861
AGGCGG | 0.264 | 0.351 | 0.254
GTAAGG | 0.805 | 0.752 | 0.763
GTCGAG | 0.448 | 0.502 | 0.405
AGTTGG | 0.506 | 0.554 | 0.523
CGGTCG | 0.372 | 0.428 | 0.42
CCAGTC | 0.252 | 0.358 | 0.259
CGTCAG | 0.894 | 0.851 | 0.867
CACCGT | 0.577 | 0.65 | 0.65
CAACGG | 0.837 | 0.914 | 0.996
ACGCAA | 0.874 | 0.813 | 0.911
GTCGCA | 0.744 | 0.673 | 0.788
GAGGGT | 0.565 | 0.644 | 0.555
GGCACA | 0.857 | 0.892 | 0.86
TGAGGA | 0.761 | 0.661 | 0.715
GAACCG | 0.741 | 0.693 | 0.711
CTGTGA | 0.515 | 0.546 | 0.449
TGTAGT | 0.896 | 0.942 | 0.904
AGTGAG | 0.225 | 0.308 | 0.278

Sequence | binding signal (ELF3) | binding signal (ETV7) | binding signal (ETV6)
CGCGGG | 0.679 | 0.869 | 0.703
GGACCG | 0.712 | 0.82 | 0.829
GGGAGA | 0.295 | 0.355 | 0.333
TCGGAT | 0.512 | 0.468 | 0.487
GTAAAG | 0.894 | 0.905 | 0.898
TCGTGG | 0.712 | 0.833 | 0.693
GGGAAC | 0.697 | 0.682 | 0.698
AGTCAT | 0.632 | 0.646 | 0.582
GATCGC | 0.775 | 0.855 | 0.849
TAGACC | 0.84 | 0.778 | 0.808
GACAGA | 0.68 | 0.715 | 0.598
GGTAGT | 0.746 | 0.844 | 0.811
AGTTCA | 0.98 | 0.975 | 0.923
CAGTTT | 0.851 | 0.907 | 0.922
CAGGCT | 0.822 | 0.764 | 0.812
GGACGC | 0.355 | 0.373 | 0.367
GCCAAA | 0.797 | 0.856 | 0.819
CGTTAG | 0.805 | 0.851 | 0.759
AGCACC | 0.939 | 0.957 | 0.923
ACCAGG | 0.839 | 0.717 | 0.738
CGTAGG | 0.562 | 0.65 | 0.677
GTAAGT | 0.859 | 0.815 | 0.843
GCACAG | 0.764 | 0.763 | 0.708
CGCAGA | 0.911 | 0.807 | 0.786

Sequence | binding signal (ELF3) | binding signal (ETV7) | binding signal (ETV6)
AAGTCG | 0.471 | 0.542 | 0.463
AGGGGC | 0.843 | 0.822 | 0.886
CGCAAG | 0.706 | 0.822 | 0.734
GAGAGA | 0.478 | 0.464 | 0.379
AGTTGT | 0.683 | 0.863 | 0.842
GGGGAT | 0.637 | 0.628 | 0.641
GACGGG | 0.39 | 0.541 | 0.405
GCGGAT | 0.931 | 0.84 | 0.829
ACGTAG | 0.79 | 0.801 | 0.755
GCGCAT | 0.788 | 0.873 | 0.857
AAAGAG | 0.94 | 0.946 | 0.959
GCATAT | 0.86 | 1.08 | 0.967
TGAGGT | 0.625 | 0.64 | 0.564
GCGAGA | 0.547 | 0.556 | 0.47
GTAGAG | 0.601 | 0.618 | 0.547
GGAGAT | 0.295 | 0.348 | 0.33
CCAGTA | 0.651 | 0.717 | 0.669
AAAGGA | 0.995 | 0.948 | 0.945
AAGAGT | 0.769 | 0.944 | 0.955
GTGTGC | 0.872 | 0.859 | 0.867
AGGGTA | 0.899 | 0.98 | 0.9
ACGGTG | 0.574 | 0.477 | 0.534
CAGGGT | 0.875 | 0.868 | 0.852
ACGCAG | 0.817 | 0.811 | 0.801

Sequence | binding signal (ELF3) | binding signal (ETV7) | binding signal (ETV6)
GTGAGC | 0.448 | 0.415 | 0.378
ATAGGA | 0.779 | 0.802 | 0.856
GCCAAG | 0.883 | 0.858 | 0.828
GGCAGA | 0.536 | 0.661 | 0.625
TGCGAG | 0.938 | 0.953 | 0.878
GCCGGG | 0.438 | 0.455 | 0.406
GAGTCT | 0.379 | 0.461 | 0.432
CGGGTG | 0.782 | 0.821 | 0.614
CAAGAC | 0.911 | 0.909 | 0.775
AGGGGG | 0.698 | 0.766 | 0.56
ACCGCG | 0.831 | 0.733 | 0.825
AGTCGT | 0.397 | 0.435 | 0.411
CCGTGT | 0.45 | 0.525 | 0.497
GTCGCT | 0.746 | 0.742 | 0.793
TCGGTA | 0.644 | 0.581 | 0.532
GTCGGA | 0.162 | 0.221 | 0.164
GAGAAG | 0.631 | 0.821 | 0.692
AGGGTG | 0.77 | 0.827 | 0.752
GGCCAC | 0.988 | 0.92 | 0.861
AGGCCA | 0.708 | 0.664 | 0.598
AAGCCA | 0.928 | 0.864 | 0.817
GGTGAC | 0.836 | 0.731 | 0.861
CAGCCA | 0.874 | 0.807 | 0.777
GAGGTG | 0.548 | 0.549 | 0.434

Given in markdown: part of the list above.

| Sequence | binding signal (ELF3) | binding signal (ETV7) | binding signal (ETV6) |
| --- | --- | --- | --- |
| AAAGGA | 0.995 | 0.948 | 0.945 |
| AAGAGT | 0.769 | 0.944 | 0.955 |
| GTGTGC | 0.872 | 0.859 | 0.867 |
| AGGGTA | 0.899 | 0.98 | 0.9 |
| ACGGTG | 0.574 | 0.477 | 0.534 |
| CAGGGT | 0.875 | 0.868 | 0.852 |
| ACGCAG | 0.817 | 0.811 | 0.801 |
| GTGAGC | 0.448 | 0.415 | 0.378 |
| ATAGGA | 0.779 | 0.802 | 0.856 |
| GCCAAG | 0.883 | 0.858 | 0.828 |
| GGCAGA | 0.536 | 0.661 | 0.625 |
| TGCGAG | 0.938 | 0.953 | 0.878 |
| GCCGGG | 0.438 | 0.455 | 0.406 |
| GAGTCT | 0.379 | 0.461 | 0.432 |
| CGGGTG | 0.782 | 0.821 | 0.614 |
| CAAGAC | 0.911 | 0.909 | 0.775 |
| AGGGGG | 0.698 | 0.766 | 0.56 |
| ACCGCG | 0.831 | 0.733 | 0.825 |
| AGTCGT | 0.397 | 0.435 | 0.411 |
| CCGTGT | 0.45 | 0.525 | 0.497 |
| GTCGCT | 0.746 | 0.742 | 0.793 |
| TCGGTA | 0.644 | 0.581 | 0.532 |
| GTCGGA | 0.162 | 0.221 | 0.164 |
| GAGAAG | 0.631 | 0.821 | 0.692 |
| AGGGTG | 0.77 | 0.827 | 0.752 |
| GGCCAC | 0.988 | 0.92 | 0.861 |
| AGGCCA | 0.708 | 0.664 | 0.598 |
| AAGCCA | 0.928 | 0.864 | 0.817 |

Further results

Sequence | binding signal (ELF3) | binding signal (ETV7) | binding signal (ETV6)
CAGTTA | 0.897 | 0.788 | 0.797
GGAGCT | 0.638 | 0.641 | 0.586
GAATCG | 0.614 | 0.666 | 0.651
AGCGCG | 0.776 | 0.841 | 0.762
GGGACG | 0.505 | 0.495 | 0.47
AGATAC | 1.01 | 0.934 | 0.872
GGGGTG | 0.591 | 0.682 | 0.71
CCAGCG | 0.502 | 0.714 | 0.609
TCGCAG | 0.825 | 0.898 | 0.887
GTGACG | 0.66 | 0.672 | 0.705
CGGGAA | 0.79 | 0.762 | 0.842
TGCCGT | 0.809 | 0.951 | 0.827
CGCGGA | 1.07 | 0.904 | 0.999
GGTCGC | 0.741 | 0.745 | 0.874
GCCACG | 0.994 | 1.03 | 0.864
GACAAC | 0.938 | 0.918 | 0.975
TGGGGG | 0.854 | 0.806 | 0.802
GGGCAG | 0.527 | 0.659 | 0.607
CGTAAG | 0.682 | 0.741 | 0.744
GCAAGA | 0.875 | 0.851 | 0.731
GGTGGA | 0.647 | 0.661 | 0.618
TGGGAG | 0.483 | 0.509 | 0.462
GACCGT | 0.422 | 0.453 | 0.426
TCAGTG | 0.77 | 0.796 | 0.766
